Measurements taken from PubChem BioAssay AID1347076 (National Center for Advancing Translational Sciences (NCATS), 2019).
Out of some 400,000 compounds screened, about 13,000 (3.2%) were called active. This list was built around the results that the source calls inconclusive (neither active nor inactive); the mix of calls is not that of the screen. Calls come from the whole dose curve; as a rule, active = well fitted cell-killing curve with a large enough effect; inconclusive = small, poorly fitted or top-dose-only effect, or effect the other way; inactive = flat fitted curve, though single readings scatter. Where the call is inconclusive, the potency comes from a doubtful curve fit.
% is set by controls: 0 for no effect and ±100 for the full control effect; potency is the fitted concentration of half-maximal effect.

Test: qHTS assay for MDR1-selective chemotherapeutics: Primary screen using the drug-selected MDR subline cells KB-V1; note: nearly all actives have a fitted effect of over 60% in size
Details: KB-V1 MDR cells viability, CellTiter-Glo, 72 h; activity change, negative = cytotoxicity: at 46.1 µM (top of the series)
How it was run: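 Cytotoxicity toward P-gp-expressing KB-V1 cells was determined as loss of CellTiter-Glo luminescence after 72 h at 37 degrees C. Compounds were tested in quantitative HTS format across a concentration range, with curves fitted to normalized data.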
In the case of O=c1c2ccccc2n(Cc2cccc(F)c2)c(=O)n1C1CCCC1, the Potency is reported as inconclusive: 8.2 µM [cytotoxic, partial curve, poor fit].
For CCOc1ccc(C(=O)NCCn2cc(SCC(=O)Nc3ccc4c(c3)OCCO4)c3ccccc32)cc1, the Potency was inconclusive: 16.4 µM [cytotoxic, single point].
With Cc1ccccc1C(=O)NC1CCN(C(=O)Nc2ccccc2Cl)CC1 the “activity change, negative = cytotoxicity” value was inactive: -27.7%.
In the case of O=C(NCc1ccccn1)Nc1ccc(Cl)cc1, the Potency is reported as inconclusive: 4.61 µM [rising, full curve, poor fit].
With Cc1ccc(CNc2nc(N)c([N+](=O)[O-])c(NCCO)n2)cc1 the Potency was inconclusive: 16.4 µM [cytotoxic, partial curve, poor fit].
In the case of Cc1ccc(NC(=O)CN(C)S(=O)(=O)c2cccs2)cc1F, the Potency is reported as active: 14.6 µM.
With CC1CCC(NC(=O)CN2CCN(S(=O)(=O)c3ccc(Br)s3)CC2)CC1 (stereo not drawn) the Potency was inconclusive: 18.4 µM [cytotoxic, partial curve, poor fit].
For COC(=O)c1cc(Cl)ccc1NCC(N)c1ccccc1 (stereo not drawn), the “activity change, negative = cytotoxicity” value was inactive: -1.19%.
In the case of CSc1cccc(NC(=S)N(CCC(C)C)C(C)c2ccncc2)c1 (stereo not drawn), the Potency is reported as inconclusive: 20.6 µM [cytotoxic, single point].
In the case of O=C(Nc1cccc(Cl)c1)c1ccc(F)c(S(=O)(=O)NCc2cccs2)c1, the Potency is reported as inconclusive: 3.26 µM [cytotoxic, partial curve, poor fit].
With CC(Sc1nc(-c2ccc(F)cc2)cs1)C(=O)N1c2ccccc2CC1C (stereo not drawn) the Potency was inconclusive: 13 µM [cytotoxic, partial curve].
For COCCn1c(SCC(=O)NCCCN2CCCC2=O)nc2sc3c(c2c1=O)CCCC3, the Potency was active: 20.6 µM.
For CCOC(=O)c1sc(NC(=O)c2sccc2C)cc1C, the Potency was inconclusive: 16.4 µM [cytotoxic, partial curve].
With Cc1cccc(NC(=S)NC2CC3C=CC2C3)c1 (stereo not drawn) the “activity change, negative = cytotoxicity” value was inactive: -9.09%.
With COc1ccccc1COCC(O)CN(Cc1ccco1)Cc1ccccc1O (stereo not drawn) the Potency was active: 7.31 µM.
With COC(=O)C(CCCCN1C(=O)C2C3C=CC(C3)C2C1=O)N1C(=O)C2C3C=CC(C3)C2C1=O (stereo not drawn) the “activity change, negative = cytotoxicity” value was inactive: -4.41%.
With O=C(c1ccc2c(c1)OCO2)N1CCN(S(=O)(=O)c2ccc(Br)cc2Cl)CC1 the activity change, negative = cytotoxicity was inconclusive: -29.9%.
For CC(=O)Nc1ccc(-c2ccnc3c2CC(C(=O)NCC2CC2)O3)cc1 (stereo not drawn), the “activity change, negative = cytotoxicity” value was inactive: -19.2%.
For Cc1ccc(C(=O)Nc2ccc3c(c2)OCO3)cc1NC(=O)c1ccco1, the “activity change, negative = cytotoxicity” value was inactive: -10.8%.
For COc1ccccc1CNC(=O)CSc1nc2ccccc2c(=O)n1CCCN1CCOCC1, the Potency was inconclusive: 6.51 µM [cytotoxic, partial curve].
For Cc1ccccc1NC1=NCC(c2ccc([N+](=O)[O-])cc2)S1 (stereo not drawn), the Potency was inconclusive: 20.6 µM [cytotoxic, single point].
With C[n+]1ccccc1N1CCN(c2ccccc2Cl)CC1 the “activity change, negative = cytotoxicity” value was inactive: 8.46%.
With Cc1ccc(NC(NC(=O)c2ccccn2)C(Cl)(Cl)Cl)cc1 (stereo not drawn) the Potency was inconclusive: 25.9 µM [cytotoxic, single point].
With CC1CCN(S(=O)(=O)N2CCC(C(=O)NCc3cccs3)CC2)CC1 the Potency was active: 18.4 µM.
In the case of CCCCn1c2ccc(F)cc2c2nnc(SCCN(CC)CC)nc21, the Potency is reported as inconclusive: 0.517 µM [cytotoxic, full curve, poor fit].
With CCn1c(SCC(=O)Nc2ccc(OC)cc2)nc2c(c1=O)SCC2 the Potency was inconclusive: 10.3 µM [cytotoxic, partial curve].
In the case of COc1ccc(Cl)cc1NC(=O)C(C)NC(c1ccccc1)c1ccccc1 (stereo not drawn), the Potency is reported as inconclusive: 18.4 µM [cytotoxic, partial curve].
With COc1cccc(/C=N/NC(=O)CSc2ccccc2C)c1O the Potency was active: 6.51 µM.
With CCNc1ccc(C(=O)NN=C2CCCC2)cc1[N+](=O)[O-] the “activity change, negative = cytotoxicity” value was inactive: -0.565%.
With CCc1nc(SCC(=O)Nc2ccc(N(C)C)cc2)c2ccccc2n1 the “activity change, negative = cytotoxicity” value was inactive: -5.63%.
In the case of COC(=O)[C@]1(Sc2ccc(OC)cc2)CC(=O)N[C@@H]1c1ccccc1, the “activity change, negative = cytotoxicity” value is reported as inactive: 9.26%.
In the case of O=C(Cn1cnc2scc(-c3ccc(F)cc3)c2c1=O)NCC(c1ccco1)N1CCCC1 (stereo not drawn), the “activity change, negative = cytotoxicity” value is reported as inactive: -25.9%.
In the case of CCCCN(C)C(=O)c1sc(=O)n(Cc2ccccc2C#N)c1C, the Potency is reported as inconclusive: 20.6 µM [cytotoxic, partial curve, poor fit].
With CCOC(=O)C1=C(c2ccccc2)NC(=O)NC1c1ccc(O)c(OCC)c1 (stereo not drawn) the “activity change, negative = cytotoxicity” value was inactive: 0%.
With Cc1ccc(NC(=O)CC2SC(=O)NC2=O)cc1 (stereo not drawn) the Potency was inconclusive: 10.3 µM [rising, partial curve, poor fit].
With CCSc1nc(N)nc(-c2cccs2)c1C#N the Potency was inconclusive: 25.9 µM [cytotoxic, single point].
For CC(=O)c1c(C)[nH]c(C(=O)OCC(=O)NCCC(C)C)c1C, the Potency was inconclusive: 18.4 µM [cytotoxic, partial curve, poor fit].
With Fc1cccc(Cc2c(C3CCCCC3)nc3c4ccccc4ccn23)c1 the Potency was inconclusive: 16.4 µM [cytotoxic, partial curve, poor fit].
For CC1CCCCC12NC(=O)N(CC(=O)Nc1sccc1C(N)=O)C2=O (stereo not drawn), the “activity change, negative = cytotoxicity” value was inactive: -17.7%.
For CCCN(C(=O)CCc1nc(-c2ccccc2F)no1)c1ccc(CC)cc1, the Potency was inconclusive: 7.31 µM [cytotoxic, partial curve].
With Cc1c(C(=O)NCCSCc2cccc(C(F)(F)F)c2)cnn1-c1ccc(F)cc1 the Potency was inconclusive: 16.4 µM [cytotoxic, single point].
For COc1ccc2nc(SCC(=O)Nc3nccs3)[nH]c2c1, the Potency was inconclusive: 29.1 µM [rising, single point].
For CC1(C)CC(=O)C2=C(C1)Nc1ccccc1NC2, the “activity change, negative = cytotoxicity” value was inactive: 5.03%.
With C#CCOCCOCCOCCNc1nc(N2CCN(C(=O)CCCCCCCCCCNC(=O)[C@@H](CCSC)n3cc(CCO)nn3)CC2)nc(N2CCN(C(=O)CCCCCCCCCCNC(=O)[C@H]([C@@H](C)CC)n3cc(CCCCCN)nn3)CC2)n1 the Potency was inconclusive: 32.6 µM [cytotoxic, single point].
For Cc1onc(C(=O)Nc2ccc3c(c2)OCO3)c1[N+](=O)[O-], the Potency was inconclusive: 29.1 µM [rising, single point].
In the case of CCC(=O)c1ccc(OCC(=O)OCC(=O)Nc2cccc(S(=O)(=O)N3CCOCC3)c2)cc1, the “activity change, negative = cytotoxicity” value is reported as inactive: -4.66%.
For CCN(Cc1cc2cc(C)ccc2[nH]c1=O)S(=O)(=O)c1ccccc1, the Potency was active: 3.66 µM.
In the case of CC12CCC(=O)C=C1C(F)CC1C2C(O)CC2(C)C1CCC2(O)C(=O)CO (stereo not drawn), the Potency is reported as inconclusive: 18.4 µM [rising, single point].
For CCN(CC)S(=O)(=O)c1cc(NC(=O)C(C)OC(=O)c2[nH]c(C)c(C(C)=O)c2C)ccc1C (stereo not drawn), the Potency was active: 20.6 µM.
For CCOc1ccc(S(=O)(=O)N2CCNC(=O)C2)cc1, the Potency was inconclusive: 20.6 µM [rising, single point].
With O=C1NC(=Nc2cccc(Cl)c2)SC1Cc1cccc(Cl)c1Cl (stereo not drawn) the Potency was inconclusive: 29.1 µM [cytotoxic, single point].
With CNC(=S)N/N=C/c1cn(Cc2ccc(C)cc2)c2ccccc12 the Potency was active: 16.4 µM.
For CCCn1c(=O)c(C(=O)NNC(=O)c2cccc([N+](=O)[O-])c2)c(O)c2ccccc21, the Potency was inconclusive: 25.9 µM [cytotoxic, single point].
In the case of O=C(Nc1cc(C(F)(F)F)ccc1N1CCOCC1)c1cccc(S(=O)(=O)N2CCOCC2)c1, the “activity change, negative = cytotoxicity” value is reported as inactive: 12.1%.
With COc1ccc(CCC(=O)Nc2cc(Cl)ccc2OC)cc1 the Potency was active: 20.6 µM.
With CCn1nc(C)cc1C(=O)N1CCCC(N(C)CCc2ccc(OC)c(OC)c2)C1 (stereo not drawn) the Potency was inconclusive: 18.4 µM [cytotoxic, partial curve, poor fit].
In the case of O=C(CSc1nc2ccccc2c(=O)n1CCCN1CCOCC1)Nc1ccc(Br)cc1, the “activity change, negative = cytotoxicity” value is reported as inactive: -8.51%.
For CC(=O)Nc1ccc(NC(=O)C2CC(=O)Nc3nc4ccccc4n32)cc1 (stereo not drawn), the “activity change, negative = cytotoxicity” value was inactive: 13.3%.
For COc1ccc(/C=C/C(=O)O/N=C(\N)c2ccccc2)cc1OC, the Potency was inconclusive: 29.1 µM [cytotoxic, partial curve, poor fit].
In the case of CCS(=O)(=O)c1nc2ccccc2n1Cc1ccccn1, the “activity change, negative = cytotoxicity” value is reported as inactive: 14.6%.
For CCn1c(CNC(=O)COc2ccc(C(C)C)cc2)nnc1SCC(=O)Nc1ccccc1, the Potency was inconclusive: 20.6 µM [cytotoxic, partial curve].
With O=CNc1cc(-c2ccc(C(=O)NC3CC3)cc2)cn2c(-c3ccc(F)cc3)cnc12 the Potency was inconclusive: 18.4 µM [cytotoxic, single point].
With O=C(CNc1n[nH]c(=O)[nH]c1=O)N/N=C/C1CC=CCC1 (stereo not drawn) the “activity change, negative = cytotoxicity” value was inactive: -19%.
With COC(=O)C1=C(C)Nc2c(c(=O)n(C)c(=O)n2C)C1c1cccc(O)c1 (stereo not drawn) the Potency was inconclusive: 5.17 µM [rising, full curve].
For CCOc1cc(/C=N/O)ccc1OCC(=O)Nc1cccc(C)c1, the Potency was active: 13 µM.
With Cc1ccc(C2(c3noc(CN4CCC(c5ccncc5)CC4)n3)CCCC2)cc1 the “activity change, negative = cytotoxicity” value was inactive: 0%.
With CC(C)N1C(=O)/C(=C\c2nc3ccccc3c(=O)[nH]2)c2ccccc21 the “activity change, negative = cytotoxicity” value was inactive: -13%.
With COc1cccc(/C=N/NC(=O)CNC(=O)CCc2ccccc2)c1O the Potency was inconclusive: 20.6 µM [cytotoxic, partial curve, poor fit].
With CCC(CC)C(=O)N(C)c1c(C)nc2c(OCc3cccc(OC)c3)cccn12 the Potency was inconclusive: 5.8 µM [cytotoxic, partial curve].
In the case of OCCNc1nc(Nc2ccc(Cl)c(Cl)c2)nc2ccccc12, the Potency is reported as active: 9.2 µM.
With COC(=O)CC(c1ccc(C#N)cc1)n1c(C)ccc1C (stereo not drawn) the “activity change, negative = cytotoxicity” value was inactive: -0.887%.
In the case of COc1ccc(CC(=O)Nc2oc(-c3ccccc3)c(-c3ccccc3)c2C#N)cc1OC, the “activity change, negative = cytotoxicity” value is reported as inactive: -10.1%.
In the case of O=C(Cc1ccccc1)N1CCc2ccccc21, the Potency is reported as inconclusive: 29.1 µM [cytotoxic, single point].
